Reference: article doi:10.1101/2023.03.27.534416 (bioRxiv, 2023)
Results are given in words; binding and its absence hold for the method and conditions named. Binding seen in cells or lysates may run through a third protein. Some entries that bind do so weakly or less than the wild type. Where a sequence is shown, tags or fusion partners need not be part of it.

The chains behind the UniProt entries cited, without tags or fusion partners.
UniProt P63167: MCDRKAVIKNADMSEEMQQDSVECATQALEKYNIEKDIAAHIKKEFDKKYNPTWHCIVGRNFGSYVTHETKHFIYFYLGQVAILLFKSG

Biological target: Flag-DYNLL1 (UniProt P63167)
Test: co-IP

Row | binding | Binder
1 | binds | Myc-MRE11 N-terminal fragment (residues 1-181) (domain or fragment, UniProt P49959 1-181) MSTADALDDENTFKILVATDIHLGFMEKDAVRGNDTFVTLDEILRLAQENEVDFILLGGDLFHENKPSRKTLHTCLELLRKYCMGDRPVQFEILSDQSVNFGFSKFPWVNYQDGNLNISIPVFSIHGNHDDPTGADALCALDILSCAGFVNHFGRSMSVEKIDISPVLLQKGSTKIALYGL
2 | binds | Myc-MRE11 fragment (residues 293-483) (domain or fragment, UniProt P49959 293-483) KMNMHKIPLHTVRQFFMEDIVLANHPDIFNPDNPKVTQAIQSFCLEKIEEMLENAERERLGNSHQPEKPLVRLRVDYSGGFEPFSVLRFSQKFVDRVANPKDIIHFFRHREQKEKTGEEINFGKLITKPSEGTTLRVEDLVKQYFQTAEKNVQLSLLTERGMGEAVQEFVDKEEKDAIEELVKYQLEKTQR
